Measured values from US20150297615A1, “ANDROGEN RECEPTOR INACTIVATION CONTRIBUTES TO ANTITUMOR EFFICACY OF CYP17 INHIBITORS IN PROSTATE CANCER” (UNIVERSITY OF MARYLAND, BALTIMORE, priority 2008, published 2015).
At least one structure is not confirmed: it was looked up by name or label, or the drawing left a doubt.

Biological target: T1, wild-type AR (Homo sapiens, UniProt P10275)
T1 construct: the wild-type AR expressed endogenously in LAPC4 cells; endogenous in cells; host or cells: LAPC4 cells (endogenous) and PC3-AR cells (PC-3 stably transfected with human wild-type AR)
T1 sequence (P10275 1-920): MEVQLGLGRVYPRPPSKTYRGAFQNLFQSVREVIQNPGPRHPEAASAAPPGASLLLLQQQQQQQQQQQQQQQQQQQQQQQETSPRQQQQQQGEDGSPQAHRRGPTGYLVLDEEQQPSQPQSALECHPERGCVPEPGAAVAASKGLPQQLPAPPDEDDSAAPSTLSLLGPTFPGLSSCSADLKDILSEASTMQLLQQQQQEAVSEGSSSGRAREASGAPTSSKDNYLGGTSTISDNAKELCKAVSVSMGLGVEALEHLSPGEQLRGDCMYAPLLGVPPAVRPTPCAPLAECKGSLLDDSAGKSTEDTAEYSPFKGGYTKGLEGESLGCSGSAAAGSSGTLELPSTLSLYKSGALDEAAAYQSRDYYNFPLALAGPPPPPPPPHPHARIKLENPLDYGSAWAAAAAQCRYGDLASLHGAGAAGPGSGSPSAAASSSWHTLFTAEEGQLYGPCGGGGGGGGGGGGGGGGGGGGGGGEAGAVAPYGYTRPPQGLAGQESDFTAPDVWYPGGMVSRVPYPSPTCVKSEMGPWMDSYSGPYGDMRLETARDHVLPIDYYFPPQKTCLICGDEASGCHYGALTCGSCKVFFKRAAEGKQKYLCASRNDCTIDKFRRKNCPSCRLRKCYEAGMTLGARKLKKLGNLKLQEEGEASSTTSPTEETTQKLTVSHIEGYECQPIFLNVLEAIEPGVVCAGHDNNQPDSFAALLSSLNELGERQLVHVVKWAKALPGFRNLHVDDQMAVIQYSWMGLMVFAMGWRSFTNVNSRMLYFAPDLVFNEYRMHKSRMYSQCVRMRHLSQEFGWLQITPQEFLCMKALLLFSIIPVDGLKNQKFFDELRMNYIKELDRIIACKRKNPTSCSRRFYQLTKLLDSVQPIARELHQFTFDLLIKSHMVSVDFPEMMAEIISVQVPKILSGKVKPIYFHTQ
Assay: Competitive inhibition of [3H]R1881 binding, wild-type AR (LAPC4/PC3-AR cells)
Experimental: In order to determine if the CYP17 inhibitors interact with the AR, competitive binding assays were performed as described previously. The ability of the test compounds (1 nM-10 μM) to displace [^3H]R1881 (5.0 nM) from the AR was determined in LAPC4 cells (wild-type AR), PC3 cells transfected with wild-type AR (PC3-AR), LNCaP cells which express an endogenous AR with a mutation in the ligand binding domain (T877A), and PC3 cells transfected with an AR containing a mutation in the DNA binding domain (T575A).
The ability of the test compounds to displace [^3H]R1881 (5.0 nM) from the androgen receptor was determined in LAPC4 cells (wild-type AR), PC3 cells transfected with wild-type AR, LNCaP cells which express an endogenous AR with a mutation in the ligand binding domain (T877A), and PC3 cells transfected with an AR containing a mutation in the DNA binding domain (T575A). Cells were plated (2-3×10^5) in 24 well multiwell dishes in steroid-free medium and allowed to attach. The following day the medium was replaced with serum-free, steroid free RPMI supplemented with 0.1% BSA and containing [^3H]R1881 (5 nM), test compounds (1 nM-10 μM), and 1 μM triamcinolone acetonide to saturate progesterone and glucocorticoid receptors. Following a 2 hour incubation period at 37° C., cells were washed twice with ice-cold DPBS and solubilized in DPBS containing 0.5% SDS and 20% glycerol.

C[C@]12CC[C@H](O)CC1=CC[C@@H]1[C@@H]2CC[C@]2(C)C(c3cccnc3)=CC[C@@H]12 [Abiraterone]
binding to the AR (in words): did not bind to the AR
